In ChEMBL document CHEMBL3414445, “Blood-brain barrier permeable anticholinesterase aurones: synthesis, structure-activity relationship, and drug-like properties” (Eur J Med Chem, 2015) one finds Papp data, which are given here for one compound.

Data set [1] is described as follows: in vitro. The conditions noted are these: PAMPA, pH 7.4.
Data set [2] in a line: in vitro. The note with it: PAMPA.

As for `COc1cc2c(cc1OC)C(=O)C(CC1CCN(Cc3ccccc3)CC1)C2` (configuration not stated) [DONEPEZIL], the Papp in data set [1] worked out at 28.3 ×10⁻⁶ cm/s; in data set [2] it was 12 ×10⁻⁶ cm/s.
